± gives the standard deviation of the averaged measurements. This is a selection; strong and weak results do not stand in their true shares.
Compound: Nc1ncnc2c1ncn2[C@@H]1O[C@H](COP(=O)(O)OP(=O)(O)NP(=O)(O)O)[C@@H](O)[C@H]1O [adenylyl imidodiphosphate]
Assay: NP40-soluble protein abundance relative to vehicle (solubility fold change) (ratio); higher = more soluble protein in presence of AMP-PNP
Summary of the method: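 Jurkat crude lysate (Dounce-homogenised) was treated with eight concentrations from 0.1 to 10 mM for 10 min at room temperature, then 3 min at 37 °C. It was solubilised with 0.8% NP40 and benzonase (60 min, 4 °C) and ultracentrifuged, and the supernatant was TMT-labelled for LC-MS/MS. Intensities were vsn-normalised, and the value is the fold change against the NP40-processed vehicle per replicate, from three independent experiments.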

Protein sequences, listed by entry. Tags and fused reporters are not part of them. Lines headed by an entry give the natural chain unless they say otherwise; changes in a name come on top.
UniProt Q9Y5X1: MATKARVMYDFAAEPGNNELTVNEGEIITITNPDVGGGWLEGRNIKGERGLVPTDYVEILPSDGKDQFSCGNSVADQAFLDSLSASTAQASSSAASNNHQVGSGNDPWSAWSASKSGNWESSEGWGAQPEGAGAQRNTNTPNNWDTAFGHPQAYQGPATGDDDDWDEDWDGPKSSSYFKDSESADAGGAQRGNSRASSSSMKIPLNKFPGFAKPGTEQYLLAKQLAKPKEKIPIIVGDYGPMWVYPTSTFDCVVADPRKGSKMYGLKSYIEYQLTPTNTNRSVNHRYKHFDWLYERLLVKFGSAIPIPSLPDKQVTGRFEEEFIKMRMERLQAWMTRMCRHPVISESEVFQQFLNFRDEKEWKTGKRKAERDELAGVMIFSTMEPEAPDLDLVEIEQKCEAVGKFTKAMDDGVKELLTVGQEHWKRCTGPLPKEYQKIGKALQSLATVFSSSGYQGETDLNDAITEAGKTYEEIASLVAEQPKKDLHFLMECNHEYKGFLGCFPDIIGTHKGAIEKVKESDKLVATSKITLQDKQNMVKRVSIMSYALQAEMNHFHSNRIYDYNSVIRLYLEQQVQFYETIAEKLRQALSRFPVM
UniProt Q6VN20, whole entry: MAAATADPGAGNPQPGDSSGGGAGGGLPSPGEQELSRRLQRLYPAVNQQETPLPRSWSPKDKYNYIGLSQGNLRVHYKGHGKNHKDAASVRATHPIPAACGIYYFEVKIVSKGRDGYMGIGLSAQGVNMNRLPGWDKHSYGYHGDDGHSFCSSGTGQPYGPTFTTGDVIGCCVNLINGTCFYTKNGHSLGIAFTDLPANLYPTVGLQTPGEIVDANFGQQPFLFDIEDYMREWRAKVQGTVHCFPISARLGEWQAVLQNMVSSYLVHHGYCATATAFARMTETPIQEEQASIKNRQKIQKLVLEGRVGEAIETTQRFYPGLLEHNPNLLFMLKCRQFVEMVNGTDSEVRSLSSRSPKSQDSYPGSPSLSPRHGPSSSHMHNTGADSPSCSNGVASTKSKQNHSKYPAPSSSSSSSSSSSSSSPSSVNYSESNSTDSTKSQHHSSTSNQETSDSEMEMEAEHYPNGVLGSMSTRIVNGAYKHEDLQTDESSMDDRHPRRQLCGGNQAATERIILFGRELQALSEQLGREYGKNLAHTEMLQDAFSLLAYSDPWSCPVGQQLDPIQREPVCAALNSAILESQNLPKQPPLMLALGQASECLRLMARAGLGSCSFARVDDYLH
UniProt Q2M389: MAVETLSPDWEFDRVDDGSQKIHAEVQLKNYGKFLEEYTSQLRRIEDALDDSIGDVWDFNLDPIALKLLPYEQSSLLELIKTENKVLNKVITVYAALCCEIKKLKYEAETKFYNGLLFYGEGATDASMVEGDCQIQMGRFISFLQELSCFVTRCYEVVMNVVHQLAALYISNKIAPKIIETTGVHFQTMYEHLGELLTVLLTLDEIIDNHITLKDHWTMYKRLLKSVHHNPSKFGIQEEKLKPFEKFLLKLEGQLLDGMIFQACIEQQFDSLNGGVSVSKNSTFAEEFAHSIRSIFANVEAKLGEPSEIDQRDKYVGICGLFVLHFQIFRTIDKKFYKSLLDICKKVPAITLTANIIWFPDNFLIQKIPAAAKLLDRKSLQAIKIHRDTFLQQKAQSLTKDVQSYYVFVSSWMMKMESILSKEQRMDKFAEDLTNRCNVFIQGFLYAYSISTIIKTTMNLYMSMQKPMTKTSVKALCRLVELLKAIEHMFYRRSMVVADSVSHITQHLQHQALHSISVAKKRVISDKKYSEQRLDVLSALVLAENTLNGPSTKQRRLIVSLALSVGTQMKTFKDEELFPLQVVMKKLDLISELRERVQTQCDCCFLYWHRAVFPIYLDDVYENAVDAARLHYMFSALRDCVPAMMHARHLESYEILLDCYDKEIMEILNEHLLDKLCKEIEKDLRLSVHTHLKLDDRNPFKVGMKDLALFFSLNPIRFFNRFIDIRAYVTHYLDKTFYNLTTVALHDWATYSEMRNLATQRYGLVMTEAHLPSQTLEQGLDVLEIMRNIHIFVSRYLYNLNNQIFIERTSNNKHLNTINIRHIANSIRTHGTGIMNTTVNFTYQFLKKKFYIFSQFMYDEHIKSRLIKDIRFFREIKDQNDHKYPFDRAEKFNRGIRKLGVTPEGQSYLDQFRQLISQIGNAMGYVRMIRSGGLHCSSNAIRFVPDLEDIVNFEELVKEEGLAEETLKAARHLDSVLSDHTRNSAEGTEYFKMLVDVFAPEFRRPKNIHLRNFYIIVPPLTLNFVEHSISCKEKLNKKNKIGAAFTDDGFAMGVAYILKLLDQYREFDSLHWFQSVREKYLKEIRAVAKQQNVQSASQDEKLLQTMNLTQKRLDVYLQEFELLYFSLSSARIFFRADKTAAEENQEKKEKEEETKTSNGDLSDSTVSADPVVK
UniProt Q5QP82: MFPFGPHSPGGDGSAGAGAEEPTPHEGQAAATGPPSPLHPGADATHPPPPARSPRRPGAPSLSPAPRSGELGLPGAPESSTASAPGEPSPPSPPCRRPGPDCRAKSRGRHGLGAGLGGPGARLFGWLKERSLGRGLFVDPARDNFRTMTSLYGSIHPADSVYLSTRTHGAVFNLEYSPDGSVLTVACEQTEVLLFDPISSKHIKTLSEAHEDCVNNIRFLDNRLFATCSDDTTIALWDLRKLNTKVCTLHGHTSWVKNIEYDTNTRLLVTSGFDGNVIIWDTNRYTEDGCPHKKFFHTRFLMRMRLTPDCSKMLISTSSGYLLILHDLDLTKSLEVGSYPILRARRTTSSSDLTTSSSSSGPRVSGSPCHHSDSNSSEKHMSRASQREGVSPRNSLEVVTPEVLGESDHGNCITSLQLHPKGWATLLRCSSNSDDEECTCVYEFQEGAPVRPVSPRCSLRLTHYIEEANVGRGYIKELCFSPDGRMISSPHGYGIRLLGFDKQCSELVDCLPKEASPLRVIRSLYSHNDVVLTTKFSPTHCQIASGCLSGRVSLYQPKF
UniProt Q9H2U2: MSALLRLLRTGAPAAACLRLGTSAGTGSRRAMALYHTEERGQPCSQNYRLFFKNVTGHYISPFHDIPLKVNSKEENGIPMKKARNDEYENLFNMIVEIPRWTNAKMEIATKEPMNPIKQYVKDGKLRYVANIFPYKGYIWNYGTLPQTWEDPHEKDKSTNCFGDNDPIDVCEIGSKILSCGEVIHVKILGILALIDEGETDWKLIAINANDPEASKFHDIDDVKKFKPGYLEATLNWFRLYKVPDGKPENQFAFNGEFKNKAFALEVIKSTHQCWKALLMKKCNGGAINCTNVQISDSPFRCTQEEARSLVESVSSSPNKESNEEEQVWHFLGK
UniProt Q96T83: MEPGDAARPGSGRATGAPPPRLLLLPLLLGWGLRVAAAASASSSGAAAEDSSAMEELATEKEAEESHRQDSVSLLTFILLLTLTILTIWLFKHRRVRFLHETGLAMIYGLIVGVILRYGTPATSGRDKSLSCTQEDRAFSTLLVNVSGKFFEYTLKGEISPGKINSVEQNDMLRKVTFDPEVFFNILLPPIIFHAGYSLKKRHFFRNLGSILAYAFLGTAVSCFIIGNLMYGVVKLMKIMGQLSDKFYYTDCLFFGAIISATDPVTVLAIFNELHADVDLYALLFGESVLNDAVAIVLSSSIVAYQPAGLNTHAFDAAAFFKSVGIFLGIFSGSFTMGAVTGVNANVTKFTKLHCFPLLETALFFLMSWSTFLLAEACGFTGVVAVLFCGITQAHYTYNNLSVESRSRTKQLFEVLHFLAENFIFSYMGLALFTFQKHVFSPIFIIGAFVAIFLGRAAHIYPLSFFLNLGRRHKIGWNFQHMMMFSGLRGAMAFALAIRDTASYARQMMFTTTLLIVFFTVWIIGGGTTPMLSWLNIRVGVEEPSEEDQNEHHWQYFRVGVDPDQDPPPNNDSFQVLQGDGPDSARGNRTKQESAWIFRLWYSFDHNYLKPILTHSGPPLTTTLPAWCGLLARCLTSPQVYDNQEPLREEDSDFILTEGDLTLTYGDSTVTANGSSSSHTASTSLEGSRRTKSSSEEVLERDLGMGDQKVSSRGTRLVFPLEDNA
UniProt Q9BWM7: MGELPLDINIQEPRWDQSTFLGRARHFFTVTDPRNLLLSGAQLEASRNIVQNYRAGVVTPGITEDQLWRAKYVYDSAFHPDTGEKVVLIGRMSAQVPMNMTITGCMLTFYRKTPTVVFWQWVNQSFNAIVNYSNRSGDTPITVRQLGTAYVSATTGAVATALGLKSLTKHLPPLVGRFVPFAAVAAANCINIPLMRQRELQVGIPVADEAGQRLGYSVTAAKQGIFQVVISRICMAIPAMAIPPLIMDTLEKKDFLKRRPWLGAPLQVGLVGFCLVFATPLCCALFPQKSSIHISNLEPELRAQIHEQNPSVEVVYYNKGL
UniProt Q8WUA7: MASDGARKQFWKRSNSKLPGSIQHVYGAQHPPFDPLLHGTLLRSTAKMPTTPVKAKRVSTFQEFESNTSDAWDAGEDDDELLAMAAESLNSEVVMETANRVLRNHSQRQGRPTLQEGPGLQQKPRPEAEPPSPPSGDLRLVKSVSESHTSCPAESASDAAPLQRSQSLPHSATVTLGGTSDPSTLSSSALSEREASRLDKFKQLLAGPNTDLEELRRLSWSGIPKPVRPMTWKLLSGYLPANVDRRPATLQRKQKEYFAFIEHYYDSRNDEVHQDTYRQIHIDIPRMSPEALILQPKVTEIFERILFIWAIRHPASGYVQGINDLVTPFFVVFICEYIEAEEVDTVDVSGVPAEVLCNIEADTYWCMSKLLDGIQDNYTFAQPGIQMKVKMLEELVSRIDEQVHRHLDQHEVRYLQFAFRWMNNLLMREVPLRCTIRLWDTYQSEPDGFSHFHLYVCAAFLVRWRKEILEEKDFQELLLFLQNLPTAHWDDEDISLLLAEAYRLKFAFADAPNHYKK
UniProt Q9NZ72: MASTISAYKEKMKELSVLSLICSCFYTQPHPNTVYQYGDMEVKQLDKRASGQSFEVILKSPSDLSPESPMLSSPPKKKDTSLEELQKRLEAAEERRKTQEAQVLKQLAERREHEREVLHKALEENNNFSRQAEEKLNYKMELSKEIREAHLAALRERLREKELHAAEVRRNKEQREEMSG
UniProt O95999: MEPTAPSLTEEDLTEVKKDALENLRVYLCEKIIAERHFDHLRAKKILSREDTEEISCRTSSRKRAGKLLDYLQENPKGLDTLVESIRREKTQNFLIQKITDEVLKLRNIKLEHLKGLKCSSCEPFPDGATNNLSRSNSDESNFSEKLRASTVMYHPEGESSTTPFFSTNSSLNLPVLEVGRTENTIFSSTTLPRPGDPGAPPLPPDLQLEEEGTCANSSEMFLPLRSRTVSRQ
UniProt Q5VV52: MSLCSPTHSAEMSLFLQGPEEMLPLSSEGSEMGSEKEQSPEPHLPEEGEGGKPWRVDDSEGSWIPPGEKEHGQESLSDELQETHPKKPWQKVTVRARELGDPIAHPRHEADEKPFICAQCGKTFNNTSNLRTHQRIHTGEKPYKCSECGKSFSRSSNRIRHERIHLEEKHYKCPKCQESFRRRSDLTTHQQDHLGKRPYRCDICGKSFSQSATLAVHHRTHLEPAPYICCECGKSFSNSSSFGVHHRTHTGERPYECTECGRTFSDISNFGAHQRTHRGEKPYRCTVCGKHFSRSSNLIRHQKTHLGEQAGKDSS
UniProt P26440: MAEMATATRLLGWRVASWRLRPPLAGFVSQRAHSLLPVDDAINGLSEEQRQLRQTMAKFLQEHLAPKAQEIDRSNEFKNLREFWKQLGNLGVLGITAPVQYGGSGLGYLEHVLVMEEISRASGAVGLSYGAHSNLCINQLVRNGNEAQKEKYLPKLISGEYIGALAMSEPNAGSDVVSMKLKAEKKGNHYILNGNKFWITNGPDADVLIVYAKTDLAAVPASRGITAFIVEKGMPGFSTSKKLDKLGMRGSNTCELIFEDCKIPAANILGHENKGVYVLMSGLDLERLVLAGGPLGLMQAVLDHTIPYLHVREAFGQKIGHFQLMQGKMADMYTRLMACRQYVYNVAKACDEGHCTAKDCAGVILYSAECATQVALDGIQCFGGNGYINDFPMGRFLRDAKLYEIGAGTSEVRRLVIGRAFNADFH
UniProt Q86XR7, whole entry, looked up: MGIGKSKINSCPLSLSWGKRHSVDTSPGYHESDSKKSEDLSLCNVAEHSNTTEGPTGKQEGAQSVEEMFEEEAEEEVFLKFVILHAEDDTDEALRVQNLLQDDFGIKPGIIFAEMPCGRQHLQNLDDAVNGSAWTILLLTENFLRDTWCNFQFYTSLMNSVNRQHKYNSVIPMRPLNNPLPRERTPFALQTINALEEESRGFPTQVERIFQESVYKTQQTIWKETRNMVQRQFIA
UniProt Q9Y3B3: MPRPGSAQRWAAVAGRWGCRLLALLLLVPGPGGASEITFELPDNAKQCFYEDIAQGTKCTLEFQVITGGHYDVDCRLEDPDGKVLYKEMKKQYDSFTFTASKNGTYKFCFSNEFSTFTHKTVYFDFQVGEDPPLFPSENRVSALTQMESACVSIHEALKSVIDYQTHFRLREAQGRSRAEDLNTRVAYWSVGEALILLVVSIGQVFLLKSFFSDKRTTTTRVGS

Target	NP40-soluble protein abundance (concentration: 1mM)	NP40-soluble protein abundance (concentration: 2mM)	NP40-soluble protein abundance (concentration: 4mM)	NP40-soluble protein abundance (concentration: 6mM)	NP40-soluble protein abundance (concentration: 8mM)	NP40-soluble protein abundance (concentration: 10mM)
A0A087WYU1|A0A087WZW2|Q9Y5X1 (UniProt Q9Y5X1)	1.06 ± 0.027	1.1 ± 0.052	1.11 ± 0.036	1.13 ± 0.041	1.1 ± 0.063	1.15 ± 0.053
A0A0D9SEU5|Q6VN20 and related entries (UniProt Q6VN20)	0.981 ± 0.077	1.013 ± 0.01	0.999 ± 0.064	0.956 ± 0.099	0.918 ± 0.075	0.937 ± 0.089
A0A087X256|Q2M389 (UniProt Q2M389)	0.975 ± 0.015	0.971 ± 0.064	0.995 ± 0.028	0.97 ± 0.034	0.967 ± 0.013	0.943 ± 0.026
A0A0A0MQT4|Q5QP82 and related entries (UniProt Q5QP82)	0.99 ± 0.016	0.961 ± 0.013	0.983 ± 0.036	1.02 ± 0.088	1.02 ± 0.1	1.03 ± 0.14
A0A0C4DG21|E7EP65 and related entries (UniProt Q9NYB9)	1.002 ± 0.0098	1.04 ± 0.069	0.966 ± 0.037	0.968 ± 0.028	0.939 ± 0.04	0.968 ± 0.011
A0A0A0MSI2|B3KPJ4 and related entries (UniProt Q8IXK0)	1.03 ± 0.022	1.06 ± 0.052	1.07 ± 0.013	1.15 ± 0.027	1.16 ± 0.021	1.25 ± 0.066
A0A0C4DGB9|Q9H2U2 (UniProt Q9H2U2)	1 ± 0.016	1 ± 0.024	0.9893 ± 0.0073	1.02 ± 0.023	1.01 ± 0.029	1.01 ± 0.036
A0A087WXD1|Q96T83 (UniProt Q96T83)	0.971 ± 0.05	0.973 ± 0.015	0.958 ± 0.033	0.948 ± 0.038	0.935 ± 0.027	0.9324 ± 0.0081
A0A087WZV0|O43314 and related entries (UniProt O43314)	1.03 ± 0.044	1.03 ± 0.039	1.07 ± 0.06	1.03 ± 0.039	1.07 ± 0.028	1.05 ± 0.048
A0A087WYU2|Q96S19 (UniProt Q96S19)	1.04 ± 0.022	1.01 ± 0.015	1.01 ± 0.012	0.989 ± 0.013	0.988 ± 0.022	0.978 ± 0.026
A0A0D9SGJ6|J3KQV8 and related entries (UniProt O43426)	0.998 ± 0.046	1.02 ± 0.045	1.04 ± 0.059	0.995 ± 0.061	1.01 ± 0.07	1.02 ± 0.05
A0A0A0MS41|Q9BWM7 (UniProt Q9BWM7)	1.01 ± 0.017	0.957 ± 0.051	0.9957 ± 0.0075	0.9947 ± 0.009	0.994 ± 0.017	1.007 ± 0.0074
A0A0A0MTG1|A0A0G2JIA5|A0A140T8Y0|A0A140TA35|A0A140TA36|A0A140TA40|A0A140TA45|Q5ST30 and related entries (UniProt Q5ST30)	1 ± 0.017	0.992 ± 0.051	0.992 ± 0.02	0.98 ± 0.034	0.979 ± 0.022	0.969 ± 0.04
A0A0A0MTC2|D6RA37 and related entries (UniProt Q13454)	0.959 ± 0.035	0.923 ± 0.026	1.01 ± 0.03	1.05 ± 0.08	1.05 ± 0.063	1 ± 0.058
A0A0A0MTH9|O14981 (UniProt O14981)	1.01 ± 0.025	0.988 ± 0.04	1.01 ± 0.028	0.965 ± 0.027	0.965 ± 0.014	0.969 ± 0.019
A0A0A0MRY0|Q8WUA7 and related entries (UniProt Q8WUA7)	1.03 ± 0.042	1.05 ± 0.026	1 ± 0.025	1.01 ± 0.021	0.994 ± 0.011	1.05 ± 0.076
A0A0J9YW36|Q9NZ72 and related entries (UniProt Q9NZ72)	0.9817 ± 0.0081	1.02 ± 0.048	0.977 ± 0.02	0.978 ± 0.037	0.964 ± 0.033	0.945 ± 0.016
A0A087WWW9|O95999 (UniProt O95999)	0.986 ± 0.043	1.03 ± 0.089	0.984 ± 0.043	0.994 ± 0.053	0.9647 ± 0.0084	0.992 ± 0.068
A0A140T9T7|Q03518 (UniProt Q03518)	1.02 ± 0.033	0.987 ± 0.075	1.002 ± 0.0072	0.973 ± 0.019	0.995 ± 0.032	0.972 ± 0.034
A0A0A0MTL5|Q13309 and related entries (UniProt Q13309)	0.986 ± 0.041	0.965 ± 0.037	0.976 ± 0.029	0.932 ± 0.053	0.923 ± 0.036	0.91 ± 0.014
A0A0J9YXM6|E9PDG3 and related entries (UniProt Q562E7)	0.98 ± 0.021	0.955 ± 0.027	0.996 ± 0.027	0.9874 ± 0.0086	0.996 ± 0.04	0.998 ± 0.022
A0A0A0MRR1|Q5VV50 and related entries (UniProt Q5VV52)	1.01 ± 0.021	1.04 ± 0.035	1.05 ± 0.033	1.05 ± 0.02	1.06 ± 0.029	1.08 ± 0.046
A0A0A0MT83|P26440 (UniProt P26440)	1.007 ± 0.01	0.947 ± 0.058	1.01 ± 0.033	0.99 ± 0.038	1.01 ± 0.015	0.993 ± 0.02
A0A0B4J2A0|Q9UHJ6 (UniProt Q9UHJ6)	1.022 ± 0.009	1.04 ± 0.078	1.05 ± 0.015	0.977 ± 0.023	0.984 ± 0.015	0.999 ± 0.025
A0A0U1RQT7|A0A0U1RQY7|Q8IXA3 and related entries (UniProt Q9HCP0)	1.02 ± 0.039	0.995 ± 0.052	0.999 ± 0.027	1.01 ± 0.033	1.04 ± 0.046	1.01 ± 0.031
A0A0D9SF54|A0A0D9SGF6|Q13813 and related entries (UniProt Q13813)	1.04 ± 0.051	1.06 ± 0.044	1.04 ± 0.044	1.08 ± 0.054	1.06 ± 0.039	1.08 ± 0.059
A0A0A6YYA0|Q86XR7-2|Q9Y3B3 and related entries (UniProt Q9Y3B3+Q86XR7)	0.984 ± 0.053	1 ± 0.037	1.01 ± 0.031	1.05 ± 0.074	1.06 ± 0.039	1.03 ± 0.089
A0A0A0MT40|H3BUD4 and related entries (UniProt Q15111)	0.9731 ± 0.0056	0.984 ± 0.013	0.958 ± 0.011	1 ± 0.025	0.994 ± 0.034	0.991 ± 0.023

An excerpt of these results, in CSV form:
Target,NP40-soluble protein abundance (concentration: 1mM),NP40-soluble protein abundance (concentration: 2mM),NP40-soluble protein abundance (concentration: 4mM),NP40-soluble protein abundance (concentration: 6mM),NP40-soluble protein abundance (concentration: 8mM),NP40-soluble protein abundance (concentration: 10mM)
A0A0D9SEU5|Q6VN20 and related entries (UniProt Q6VN20),0.981 ± 0.077,1.013 ± 0.01,0.999 ± 0.064,0.956 ± 0.099,0.918 ± 0.075,0.937 ± 0.089
A0A087X256|Q2M389 (UniProt Q2M389),0.975 ± 0.015,0.971 ± 0.064,0.995 ± 0.028,0.97 ± 0.034,0.967 ± 0.013,0.943 ± 0.026
A0A0A0MQT4|Q5QP82 and related entries (UniProt Q5QP82),0.99 ± 0.016,0.961 ± 0.013,0.983 ± 0.036,1.02 ± 0.088,1.02 ± 0.1,1.03 ± 0.14
A0A0C4DG21|E7EP65 and related entries (UniProt Q9NYB9),1.002 ± 0.0098,1.04 ± 0.069,0.966 ± 0.037,0.968 ± 0.028,0.939 ± 0.04,0.968 ± 0.011
A0A0A0MSI2|B3KPJ4 and related entries (UniProt Q8IXK0),1.03 ± 0.022,1.06 ± 0.052,1.07 ± 0.013,1.15 ± 0.027,1.16 ± 0.021,1.25 ± 0.066
A0A0C4DGB9|Q9H2U2 (UniProt Q9H2U2),1 ± 0.016,1 ± 0.024,0.9893 ± 0.0073,1.02 ± 0.023,1.01 ± 0.029,1.01 ± 0.036
A0A087WXD1|Q96T83 (UniProt Q96T83),0.971 ± 0.05,0.973 ± 0.015,0.958 ± 0.033,0.948 ± 0.038,0.935 ± 0.027,0.9324 ± 0.0081
